Results are given in words; binding and its absence hold for the method and conditions named. In cells and extracts the contact can be indirect. Some entries that bind do so weakly or less than the wild type.
Target: cohesin in S. cerevisiae cells (S. cerevisiae (endogenous in yeast cells)) (UniProt P32908+P47037+Q12158+P40541)
Assay: co-IP; S. cerevisiae cell extracts in EBXG buffer (50 mM HEPES pH 8.0, 100 mM KCl, 2.5 mM MgCl2, 10% glycerol, 0.25% Triton X-100, 1 mM DTT); antibody (not named), Protein A Dynabeads

Protein sequences, listed by entry. Tags and fused reporters are not part of them. Lines headed by an entry give the natural chain unless they say otherwise; changes in a name come on top.
UniProt P32908: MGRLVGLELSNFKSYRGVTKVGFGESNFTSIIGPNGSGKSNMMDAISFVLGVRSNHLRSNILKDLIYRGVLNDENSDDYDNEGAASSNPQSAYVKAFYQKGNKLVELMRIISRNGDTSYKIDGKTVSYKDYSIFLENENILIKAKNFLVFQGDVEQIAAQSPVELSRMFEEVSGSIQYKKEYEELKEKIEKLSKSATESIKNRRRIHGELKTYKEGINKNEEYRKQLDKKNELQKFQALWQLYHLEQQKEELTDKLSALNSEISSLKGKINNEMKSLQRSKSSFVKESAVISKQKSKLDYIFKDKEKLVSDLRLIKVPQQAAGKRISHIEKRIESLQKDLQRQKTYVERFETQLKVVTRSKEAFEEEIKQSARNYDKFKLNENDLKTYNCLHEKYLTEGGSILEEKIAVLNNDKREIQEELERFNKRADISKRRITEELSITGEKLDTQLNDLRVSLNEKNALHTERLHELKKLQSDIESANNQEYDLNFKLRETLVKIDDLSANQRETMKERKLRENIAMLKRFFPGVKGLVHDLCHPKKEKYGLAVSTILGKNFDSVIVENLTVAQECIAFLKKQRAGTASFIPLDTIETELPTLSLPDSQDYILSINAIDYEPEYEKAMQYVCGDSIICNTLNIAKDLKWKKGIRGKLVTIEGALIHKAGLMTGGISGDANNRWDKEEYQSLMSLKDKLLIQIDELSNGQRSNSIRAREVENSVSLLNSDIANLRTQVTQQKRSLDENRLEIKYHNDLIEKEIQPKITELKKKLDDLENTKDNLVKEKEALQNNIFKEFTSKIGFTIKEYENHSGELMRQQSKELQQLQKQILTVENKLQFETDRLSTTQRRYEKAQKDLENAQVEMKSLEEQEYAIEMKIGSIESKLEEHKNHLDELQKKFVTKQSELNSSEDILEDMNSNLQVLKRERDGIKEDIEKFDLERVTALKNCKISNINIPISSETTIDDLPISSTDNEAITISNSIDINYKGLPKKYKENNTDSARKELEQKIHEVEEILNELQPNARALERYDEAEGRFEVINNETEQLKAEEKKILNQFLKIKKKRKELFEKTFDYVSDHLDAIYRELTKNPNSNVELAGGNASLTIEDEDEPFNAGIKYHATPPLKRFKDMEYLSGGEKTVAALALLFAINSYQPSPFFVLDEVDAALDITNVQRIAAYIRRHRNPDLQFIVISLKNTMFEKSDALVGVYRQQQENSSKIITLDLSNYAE
UniProt P47037: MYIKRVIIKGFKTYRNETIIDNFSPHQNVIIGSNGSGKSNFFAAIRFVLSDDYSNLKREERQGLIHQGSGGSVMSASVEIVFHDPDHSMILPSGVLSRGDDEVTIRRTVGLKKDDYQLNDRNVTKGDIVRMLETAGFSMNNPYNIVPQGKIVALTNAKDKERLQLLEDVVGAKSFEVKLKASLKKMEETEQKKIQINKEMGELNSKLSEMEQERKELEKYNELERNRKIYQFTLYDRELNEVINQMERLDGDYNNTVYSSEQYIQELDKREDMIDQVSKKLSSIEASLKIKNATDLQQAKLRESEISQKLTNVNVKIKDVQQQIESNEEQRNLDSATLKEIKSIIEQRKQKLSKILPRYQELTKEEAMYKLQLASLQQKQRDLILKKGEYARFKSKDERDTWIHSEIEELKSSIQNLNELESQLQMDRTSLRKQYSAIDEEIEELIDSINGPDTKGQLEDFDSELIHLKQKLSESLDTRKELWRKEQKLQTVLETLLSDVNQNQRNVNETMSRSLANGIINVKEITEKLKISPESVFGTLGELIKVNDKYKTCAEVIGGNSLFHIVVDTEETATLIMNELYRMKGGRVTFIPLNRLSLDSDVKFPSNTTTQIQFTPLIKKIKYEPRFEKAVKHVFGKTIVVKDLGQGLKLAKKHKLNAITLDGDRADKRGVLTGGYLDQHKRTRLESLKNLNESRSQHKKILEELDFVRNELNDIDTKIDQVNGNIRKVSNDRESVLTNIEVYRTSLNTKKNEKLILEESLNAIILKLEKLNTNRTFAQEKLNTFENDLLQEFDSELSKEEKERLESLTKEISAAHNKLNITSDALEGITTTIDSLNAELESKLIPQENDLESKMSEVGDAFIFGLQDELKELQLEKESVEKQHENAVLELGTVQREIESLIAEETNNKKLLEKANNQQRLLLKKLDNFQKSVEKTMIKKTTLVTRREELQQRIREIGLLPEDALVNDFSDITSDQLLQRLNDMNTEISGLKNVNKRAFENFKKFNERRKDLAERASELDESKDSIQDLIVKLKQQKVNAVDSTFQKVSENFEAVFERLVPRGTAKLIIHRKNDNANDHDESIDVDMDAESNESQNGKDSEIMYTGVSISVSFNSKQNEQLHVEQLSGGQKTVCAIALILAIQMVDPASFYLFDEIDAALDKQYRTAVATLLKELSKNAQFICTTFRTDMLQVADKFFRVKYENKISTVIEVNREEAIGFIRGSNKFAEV
UniProt Q12158: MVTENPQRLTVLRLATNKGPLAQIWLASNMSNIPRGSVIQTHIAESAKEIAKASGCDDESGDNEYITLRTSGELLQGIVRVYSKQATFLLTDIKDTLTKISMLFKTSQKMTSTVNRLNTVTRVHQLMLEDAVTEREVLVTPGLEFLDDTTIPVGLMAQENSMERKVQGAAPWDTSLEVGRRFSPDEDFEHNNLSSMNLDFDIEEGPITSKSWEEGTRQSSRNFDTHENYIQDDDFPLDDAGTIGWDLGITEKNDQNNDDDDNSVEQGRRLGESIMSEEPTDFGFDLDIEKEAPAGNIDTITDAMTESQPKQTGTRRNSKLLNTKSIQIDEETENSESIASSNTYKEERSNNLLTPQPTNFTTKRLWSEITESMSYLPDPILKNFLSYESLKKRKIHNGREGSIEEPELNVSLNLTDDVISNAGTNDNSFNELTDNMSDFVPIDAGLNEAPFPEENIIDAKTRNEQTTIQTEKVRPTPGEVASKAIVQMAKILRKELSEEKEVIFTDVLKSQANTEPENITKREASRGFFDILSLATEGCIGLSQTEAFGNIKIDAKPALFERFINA
UniProt P40541: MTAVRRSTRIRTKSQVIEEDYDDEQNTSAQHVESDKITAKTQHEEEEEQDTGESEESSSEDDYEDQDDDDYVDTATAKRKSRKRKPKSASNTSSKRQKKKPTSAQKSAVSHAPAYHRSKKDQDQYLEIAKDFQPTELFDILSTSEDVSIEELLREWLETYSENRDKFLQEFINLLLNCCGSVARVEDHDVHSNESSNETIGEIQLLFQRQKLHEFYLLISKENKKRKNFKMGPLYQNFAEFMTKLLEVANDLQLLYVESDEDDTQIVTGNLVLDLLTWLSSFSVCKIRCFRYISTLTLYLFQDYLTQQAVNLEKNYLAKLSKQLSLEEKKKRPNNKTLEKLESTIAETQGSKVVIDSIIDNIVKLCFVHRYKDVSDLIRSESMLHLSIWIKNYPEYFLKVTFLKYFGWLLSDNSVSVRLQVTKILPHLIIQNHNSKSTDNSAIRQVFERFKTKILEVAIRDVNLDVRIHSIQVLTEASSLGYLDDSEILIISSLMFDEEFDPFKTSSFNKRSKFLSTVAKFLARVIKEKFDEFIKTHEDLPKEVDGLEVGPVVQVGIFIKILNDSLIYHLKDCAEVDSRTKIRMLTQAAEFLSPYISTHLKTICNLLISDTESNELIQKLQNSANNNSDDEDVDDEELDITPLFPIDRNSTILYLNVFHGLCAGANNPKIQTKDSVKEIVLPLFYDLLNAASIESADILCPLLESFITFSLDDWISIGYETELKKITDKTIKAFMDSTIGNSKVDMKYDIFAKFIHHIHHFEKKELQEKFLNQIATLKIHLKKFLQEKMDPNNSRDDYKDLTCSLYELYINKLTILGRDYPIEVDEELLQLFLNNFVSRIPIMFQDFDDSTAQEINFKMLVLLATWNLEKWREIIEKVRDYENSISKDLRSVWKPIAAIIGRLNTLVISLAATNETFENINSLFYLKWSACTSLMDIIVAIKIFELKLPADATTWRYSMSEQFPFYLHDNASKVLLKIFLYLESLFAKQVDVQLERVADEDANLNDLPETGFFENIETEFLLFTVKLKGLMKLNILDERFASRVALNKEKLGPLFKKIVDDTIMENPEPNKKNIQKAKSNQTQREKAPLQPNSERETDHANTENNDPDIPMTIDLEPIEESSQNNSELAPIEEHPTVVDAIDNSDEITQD
UniProt Q04002: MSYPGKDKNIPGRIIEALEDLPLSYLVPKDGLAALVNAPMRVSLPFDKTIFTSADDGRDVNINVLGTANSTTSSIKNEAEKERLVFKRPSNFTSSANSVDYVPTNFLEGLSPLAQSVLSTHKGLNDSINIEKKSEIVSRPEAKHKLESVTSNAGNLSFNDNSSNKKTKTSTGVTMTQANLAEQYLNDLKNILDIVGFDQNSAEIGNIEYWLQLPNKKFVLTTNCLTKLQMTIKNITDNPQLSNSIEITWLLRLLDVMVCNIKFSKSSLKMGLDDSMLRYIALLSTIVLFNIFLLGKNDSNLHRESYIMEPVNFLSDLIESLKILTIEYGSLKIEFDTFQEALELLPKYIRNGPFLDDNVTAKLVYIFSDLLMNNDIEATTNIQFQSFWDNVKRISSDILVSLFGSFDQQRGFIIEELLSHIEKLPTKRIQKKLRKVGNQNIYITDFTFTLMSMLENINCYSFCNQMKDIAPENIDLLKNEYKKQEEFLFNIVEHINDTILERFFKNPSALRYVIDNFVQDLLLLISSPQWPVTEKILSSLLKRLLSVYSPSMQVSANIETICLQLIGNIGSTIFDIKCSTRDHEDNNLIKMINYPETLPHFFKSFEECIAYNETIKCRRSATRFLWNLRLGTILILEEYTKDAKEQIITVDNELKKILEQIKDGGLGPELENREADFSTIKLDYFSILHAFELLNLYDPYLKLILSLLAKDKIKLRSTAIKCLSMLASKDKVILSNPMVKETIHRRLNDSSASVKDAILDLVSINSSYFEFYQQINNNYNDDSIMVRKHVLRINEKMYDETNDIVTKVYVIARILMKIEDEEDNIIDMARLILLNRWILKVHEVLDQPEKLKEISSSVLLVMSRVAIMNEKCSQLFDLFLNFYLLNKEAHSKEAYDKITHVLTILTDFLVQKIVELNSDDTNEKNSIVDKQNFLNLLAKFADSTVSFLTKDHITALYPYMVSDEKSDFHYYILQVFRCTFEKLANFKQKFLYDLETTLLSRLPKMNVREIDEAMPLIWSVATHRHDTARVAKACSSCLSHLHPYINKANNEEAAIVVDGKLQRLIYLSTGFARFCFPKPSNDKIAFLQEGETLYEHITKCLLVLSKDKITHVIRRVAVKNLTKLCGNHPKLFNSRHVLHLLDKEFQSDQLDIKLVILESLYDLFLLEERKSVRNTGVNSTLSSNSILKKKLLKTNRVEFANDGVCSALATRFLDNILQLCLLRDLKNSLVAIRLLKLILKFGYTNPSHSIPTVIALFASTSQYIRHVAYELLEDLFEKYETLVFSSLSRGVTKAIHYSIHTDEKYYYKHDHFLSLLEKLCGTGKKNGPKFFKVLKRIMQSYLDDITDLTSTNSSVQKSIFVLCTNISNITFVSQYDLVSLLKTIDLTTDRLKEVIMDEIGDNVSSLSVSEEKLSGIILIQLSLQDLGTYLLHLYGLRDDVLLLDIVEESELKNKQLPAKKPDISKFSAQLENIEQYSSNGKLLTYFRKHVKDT

binding, binds:
Scc2–Scc4 in S. cerevisiae cells, SCC2 Group II mutant (K788A/R792A) (from UniProt Q04002 1-1493; P40090 1-624) (complex)
Scc2–Scc4 in S. cerevisiae cells, SCC2 Group III mutant (E821G/E822S/D823A) (from UniProt Q04002 1-1493; P40090 1-624) (complex)
Scc2–Scc4 in S. cerevisiae cells, wild type SCC2 (from UniProt Q04002 1-1493; P40090 1-624) (complex)

From PMC5227109
